Here are results for one compound from US8765677B2 (priority 2009, dated 2014).

This data set has as its system recombinant N-type (Cav2.2) VGCCs α1B-b/β3. Type of data set: cell-based, rat.

Where a SMILES comes first, the peptide text is derived from it.

As a reminder, the Hill slope is the slope factor of the fitted curve. As to `CSCC[C@@H]1NC(=O)[C@H]([C@@H](C)O)NC(=O)[C@H](CCCCN)NC(=O)[C@H](CCCNC(=N)N)NC(=O)[C@@H]2CSSC[C@@H]3NC(=O)[C@H](CO)NC(=O)CNC(=O)[C@H](CCCNC(=N)N)NC(=O)[C@H](CSSC[C@H](N)C(=O)N[C@@H](CCCCN)C(=O)NCC(=O)N[C@@H](CCCCN)C(=O)NCC(=O)N[C@@H](C)C(=O)N[C@@H](CO)C(=O)N2)NC(=O)[C@H](CSSC[C@@H](C(N)=O)NC(=O)[C@H](CCCNC(=N)N)NC(=O)CNC(=O)[C@H](CO)NC(=O)[C@H](CCCNC(=N)N)NC3=O)NC(=O)[C@H](CC(=O)O)NC(=O)[C@H](Cc2ccc(O)cc2)NC1=O` [CVIB, reference compound] (HELM PEPTIDE1{C.K.G.K.G.A.S.C.R.K.T.M.Y.D.C.C.R.G.S.C.R.S.G.R.C.[am]}$PEPTIDE1,PEPTIDE1,1:R3-16:R3|PEPTIDE1,PEPTIDE1,8:R3-20:R3|PEPTIDE1,PEPTIDE1,15:R3-25:R3$$$V2.0), the Hill slope amounted to 0.41±0.04.
